# The supplement of paper PMC3334620
# Whole data set: some 33,000 sequences, median “E-score (-0.5 to 0.5)” near -0.0034, cut for the highest 2% near 0.25. The list shows a part of the results.
# Molecular target: T1, Yap3 (UniProt P38749)
# T1 sequence: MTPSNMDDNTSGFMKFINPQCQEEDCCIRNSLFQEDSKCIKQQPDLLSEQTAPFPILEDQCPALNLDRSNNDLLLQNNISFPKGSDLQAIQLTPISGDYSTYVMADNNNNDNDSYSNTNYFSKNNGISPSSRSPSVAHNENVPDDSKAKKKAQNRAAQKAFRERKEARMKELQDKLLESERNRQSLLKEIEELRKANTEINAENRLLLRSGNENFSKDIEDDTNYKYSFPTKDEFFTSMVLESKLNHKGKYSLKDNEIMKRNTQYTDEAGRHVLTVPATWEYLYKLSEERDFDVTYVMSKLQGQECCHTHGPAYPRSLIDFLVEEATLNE
# Test: PBM E-score (8-mer binding enrichment) (E-score (-0.5 to 0.5)); higher = stronger / more preferred TF binding
# Settings: protein concentration: 100 nM; construct: GST-full length
# Experimental: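 Universal 'all 10-mer' protein binding microarrays (Agilent AMADID 015681) probed with GST-tagged S. cerevisiae TFs (full-length or DBD) made by in vitro transcription/translation (PURExpress), about 100-200 nM. Bound TF was detected with fluorescent anti-GST. Each ungapped 8-mer (which stands for itself and its reverse complement) is scored by the PBM enrichment score (E-score), a modified Wilcoxon-Mann-Whitney statistic from -0.5 to +0.5, computed with the Universal PBM Analysis Suite. Scale: above 0.35 generally sequence-specific binding.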
row,Sequence,PBM E-score
1,CGGATGAG,-0.0331
2,AGACAACG,0.074
3,AAAAGAGA,0.121
4,AATTATAC,0.26
5,GCGTGATA,0.137
6,CAATGACC,-0.134
7,CACTAAGG,-0.121
8,ACACATAT,0.155
9,CTGAGGTA,-0.0199
10,ACTTCATA,0.108
11,CACGGATA,0.291
12,ACAGTGCA,0.0775
13,AAAGTGCC,-0.251
14,CATTGTTC,0.125
15,GCTATTGA,-0.00647
16,AATAGCCG,0.0258
17,AACATCCG,0.069
18,GTTGCTTA,0.166
19,CGAGTTTA,0.0811
20,AACTTTGC,-0.0487
21,CCACTTTA,0.171
22,CCCTAACG,-0.0642
23,AAACCGAA,-0.0751
24,CCAAATTA,0.192
25,GCGTGTTA,-0.00985

row,Sequence,PBM E-score
1,ACCATCGC,0.116
2,ACTTTTGA,0.118
3,CGACTTCA,-0.00627
4,ACACACTG,-0.0799
5,ACAATACG,0.0668
6,ACTGCAAG,-0.124
7,CCAGAGTA,-0.0215
8,CTGCCAGC,-0.224
9,GGAGAGTA,-0.046
10,CACTTATA,0.0806
11,TCTTAGAA,0.0708
12,GCCTCGCA,-0.0351
13,AATCCACT,0.0555
14,CTAAGGCC,-0.252
15,CATGTAAG,0.155
16,CCGAGGAA,-0.0542
17,ACGTGTCT,-0.0736
18,CCCAACCG,-0.161
19,AGGATTGG,-0.102
20,AGAGATCG,-0.106
21,AACCGCTC,-0.0667
22,AGAAGCAA,0.138
23,CACAAGTA,-0.0241
24,CACCCCAA,0.0621
25,CCCGTTTA,0.0936

row,Sequence,PBM E-score
1,ACAAATAG,0.202
2,CCCTGCCA,-0.19
3,CCAGGCAG,-0.115
4,AAATCGTT,0.182
5,ACAGAGCT,-0.258
6,CCGGGGGC,-0.383
7,CCGTATAA,0.0935
8,CAGTCAGA,0.0303
9,TACCTTAA,-0.00521
10,ACGTTTTA,0.148
11,GACTATAC,0.216
12,ATTTTAAA,0.282
13,CTCCTATC,-0.00854
14,ATGCGGGA,0.0303
15,GTGTAAAA,0.152
16,AAGTAGGT,-0.0577
17,GCCTTTAC,0.0482
18,AATACACT,0.259
19,GGTATTGA,0.0614
20,AGTGGGCC,-0.209
21,GTTGGGCA,0.0234
22,CTTGCCAC,-0.0801
23,AGTGCTTA,0.0381
24,GGTCTATA,0.0835
25,TCAAACAA,0.101

# Laid out differently: entries from further up.
row	Sequence	PBM E-score
25	GCGTGTTA	-0.00985
1	ACCATCGC	0.116
2	ACTTTTGA	0.118
3	CGACTTCA	-0.00627
4	ACACACTG	-0.0799
5	ACAATACG	0.0668
6	ACTGCAAG	-0.124
7	CCAGAGTA	-0.0215
8	CTGCCAGC	-0.224
9	GGAGAGTA	-0.046
10	CACTTATA	0.0806
11	TCTTAGAA	0.0708
12	GCCTCGCA	-0.0351
13	AATCCACT	0.0555
14	CTAAGGCC	-0.252
15	CATGTAAG	0.155
16	CCGAGGAA	-0.0542
17	ACGTGTCT	-0.0736
18	CCCAACCG	-0.161
19	AGGATTGG	-0.102
20	AGAGATCG	-0.106
21	AACCGCTC	-0.0667
22	AGAAGCAA	0.138
23	CACAAGTA	-0.0241
24	CACCCCAA	0.0621
25	CCCGTTTA	0.0936
1	ACAAATAG	0.202
2	CCCTGCCA	-0.19
3	CCAGGCAG	-0.115
4	AAATCGTT	0.182
5	ACAGAGCT	-0.258
6	CCGGGGGC	-0.383
7	CCGTATAA	0.0935
8	CAGTCAGA	0.0303
9	TACCTTAA	-0.00521
10	ACGTTTTA	0.148
11	GACTATAC	0.216
12	ATTTTAAA	0.282
13	CTCCTATC	-0.00854
14	ATGCGGGA	0.0303
15	GTGTAAAA	0.152
16	AAGTAGGT	-0.0577
17	GCCTTTAC	0.0482
18	AATACACT	0.259
19	GGTATTGA	0.0614
20	AGTGGGCC	-0.209
21	GTTGGGCA	0.0234
22	CTTGCCAC	-0.0801
23	AGTGCTTA	0.0381
24	GGTCTATA	0.0835
25	TCAAACAA	0.101

# (listing goes on)

row,Sequence,PBM E-score
1,CCATTCCG,-0.0825
2,ATGTTCTG,-0.0181
3,AAGTCAAG,-0.0673
4,CTTTGAAC,-0.051
5,CGGATTGC,0.0717
6,CACTTCAC,0.0734
7,AGCGCAAC,0.0702
8,GAGAAATA,-0.00553
9,AATAAGGC,0.17
10,ATCCAGAA,0.186
11,ACAGAGTA,0.0108
12,GGGTACCA,-0.202
13,ATCGCCTA,-0.0385
14,ATTAAGAA,0.107
15,CGGTCGAA,0.00971
16,GCATTAGC,-0.0616
17,CAGTCTGA,0.0314
18,GGACCTCC,-0.34
19,ATTCTCCC,-0.017
20,AGTTTATG,0.0187
21,GAGCCGGC,-0.283
22,TCATGAAA,0.0785
23,CGTGAGCC,-0.111
24,CTAAGATA,0.0736
25,CACCTCTC,-0.22

row,Sequence,PBM E-score
1,ATGTGTCG,0.173
2,CAGTTCGG,0.0866
3,GTTTTCGA,0.0512
4,AAAGTTCC,-0.127
5,AACGAAAG,0.0862
6,GGGGTGGA,-0.248
7,CACAAATC,0.0914
8,CATTGGTC,-0.0705
9,AATGTAGT,0.0938
10,ACTTGAGA,-0.00096
11,TCTACAAA,0.0689
12,AATCTTAT,0.15
13,AACATGTA,0.251
14,AGCAATAC,0.0998
15,ACTTTCCG,0.0367
16,ATCAATTA,0.318
17,TGTGTGAA,-0.0332
18,ACCTTGGG,0.0429
19,AGGTGGCG,-0.105
20,CGCCCGTC,-0.0417
21,AATACGGG,-0.0899
22,CTCGGGTA,-0.106
23,ACAGGTCA,-0.152
24,ACAGCGCC,-0.0517
25,AAGACCTA,-0.0868

row,Sequence,PBM E-score
1,ATTCTACG,0.0314
2,GCGCCGCC,-0.0619
3,GTAAGGTA,0.182
4,GTCGGAAA,0.263
5,GTGTACTA,0.133
6,ACATAATC,0.293
7,CTATCTCA,-0.0511
8,AGACTTTC,-0.0313
9,AAACCCCC,-0.429
10,AGAGGAAT,-0.0217
11,CAGTTCTC,-0.0168
12,GATGCGTA,0.0238
13,ATGCCCTG,-0.148
14,CAAGCTTG,-0.132
15,ACCTTCTG,0.103
16,GAGTTCCC,-0.198
17,AGAGTATA,0.0253
18,ATGAGCCG,-0.00302
19,CTGAGTGA,0.0954
20,AGTAGATC,-0.0265
21,CAACAGTA,-0.0872
22,AATATTCA,0.223
23,AAGTCCCA,-0.148
24,AAAGAAAT,0.26
25,CACTTACA,0.179

row,Sequence,PBM E-score
1,CCCTATCC,-0.244
2,GCTGTCGA,-0.237
3,ACCGACAA,-0.0157
4,AAAAAGCG,0.162
5,GGGGCTCA,-0.352
6,AATTTCAT,0.152
7,CGGGACCA,-0.252
8,ATTCCCCG,0.0897
9,CACTGCTG,-0.149
10,CATTTGAG,0.0533
11,GCCCCACA,-0.145
12,AACAAGCC,-0.111
13,AAAGAGCG,0.0786
14,CGTCCTTA,-0.0264
15,GCTATTCC,-0.0279
16,GCGGGTCC,-0.272
17,TCGAACAA,0.171
18,CGTGGGAC,-0.142
19,CTGGCTCA,-0.034
20,AATATAGG,0.25
21,CTCCACGA,-0.1
22,ATGCCTTG,-0.119
